PubChem BioAssay AID1259424 | University of Nebraska Medical Center – 2018

- Aim: 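Seek colon cancer survival genes behaving like KSR1, using a six-gene signature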 (primary screen)
- Cells: human HCT116 colon cancer cells
- Reagent: siRNA pool against human genes, 50 nM
- Read-out: 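Six signature mRNAs by branched-DNA multiplex assay, scaled to two housekeeping genes and non-targeting median, log2; matched to mean KSR1 knockdown profile by Pearson correlation and euclidean distance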
- Scale: mean correlation with KSR1 profile and KSR1 correlation: higher = expression change more like KSR1 knockdown; mean distance from KSR1 profile: higher = expression change less like KSR1 knockdown
Shown is an unselected part of about 14,000 deposited reagents. 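Higher correlation or smaller distance means closer resemblance to KSR1 loss; control wells, including KSR1 knockdowns, recur on many plates.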 Reagent sequences are not shown. The record does not give: the time to read-out.

target gene	mean correlation with KSR1 profile	mean distance from KSR1 profile	KSR1 correlation, replicate 1	KSR1 correlation, replicate 2	KSR1 correlation, replicate 3
TNNI3K	-0.0695	1.98	-0.478	-0.183	0.0492
FGR	0.364	3.94	0.584	0.27	0.0395
SCARB2	-0.023	4.52	0.0294	-0.106	0.0441
MAF	-0.739	2.25	-0.297	-0.465	-0.775
ZNF446	-0.296	2.8	-0.38	-0.229	-0.472
MRI1	0.769	3.49	0.665	0.738	0.829
ASIC4	0.0793	3.34	0.305	0.177	0.012
SYT4	-0.683	1.28	-0.492	-0.803	-0.305
SRGAP1	-0.149	1.23	-0.697	-0.0938	0.102
ABLIM1	-0.095	2.18	-0.203	-0.103	-0.225
INHBC	-0.262	1.47	-0.0644	-0.326	-0.339
SAT1	0.612	1.82	0.515	0.573	0.562
ATAD1	-0.215	2.73	-0.287	-0.18	-0.317
TRAF7	0.789	1.92	0.699	0.739	0.797
RHOC	-0.552	2.17	-0.512	-0.511	-0.631
SCNN1A	-0.698	2.65	-0.58	-0.727	-0.484
TNNT1	-0.682	2.74	-0.656	-0.641	-0.705
G0S2	0.55	1.28	0.75	0.334	0.319
ABRACL	0.447	1.84	0.277	0.506	0.585
SNX27	0.308	1.44	-0.0655	0.376	0.204
ADCY10	0.487	2.38	0.621	0.22	0.501
EPB41L4B	-0.721	1.11	-0.678	-0.196	-0.368
VPS25	0.864	0.761	0.68	0.807	0.886

A portion taken from the entries so far, as a working copy:
target gene	mean correlation with KSR1 profile	mean distance from KSR1 profile	KSR1 correlation, replicate 1	KSR1 correlation, replicate 2	KSR1 correlation, replicate 3
SRGAP1	-0.149	1.23	-0.697	-0.0938	0.102
ABLIM1	-0.095	2.18	-0.203	-0.103	-0.225
INHBC	-0.262	1.47	-0.0644	-0.326	-0.339
SAT1	0.612	1.82	0.515	0.573	0.562
ATAD1	-0.215	2.73	-0.287	-0.18	-0.317
TRAF7	0.789	1.92	0.699	0.739	0.797
RHOC	-0.552	2.17	-0.512	-0.511	-0.631
SCNN1A	-0.698	2.65	-0.58	-0.727	-0.484
TNNT1	-0.682	2.74	-0.656	-0.641	-0.705
G0S2	0.55	1.28	0.75	0.334	0.319

The results go on.
target gene	mean correlation with KSR1 profile	mean distance from KSR1 profile	KSR1 correlation, replicate 1	KSR1 correlation, replicate 2	KSR1 correlation, replicate 3
ATP1A1	-0.0267	2.88	-0.13	0.0022	-0.0568
LGALS4	-0.393	3.16	-0.167	-0.475	-0.597
SDC4	0.626	2.77	0.379	0.66	0.537
EI24	-0.328	1.59	-0.371	-0.214	-0.374
GPR161	0.682	1.42	0.536	0.838	0.624
ERVMER34-1	0.267	2.75	0.358	0.25	0.281
PAPPA2	0.45	1.37	0.422	0.49	0.28
PRPF6	-0.574	3.37	-0.0801	-0.734	-0.654
OR13A1	0.776	0.916	0.854	0.834	0.606
KCNH5	0.0557	3.85	0.187	0.0548	-0.247
OR5F1	0.548	2.54	0.677	0.563	0.595
DUOX2	-0.548	4.42	-0.458	-0.608	-0.63
CAMK2A	-0.0221	1.97	0.000679	0.04	-0.411
ASXL2	-0.191	1.66	-0.152	-0.146	-0.385
SUGT1P4-STRA6LP-CCDC180	-0.588	1.44	-0.336	-0.943	-0.462
KIF25	-0.158	1.99	-0.21	-0.148	-0.169
FNBP1L	0.209	2.23	0.256	-0.241	0.222
WARS2	0.126	1.47	0.253	0.0649	0.0438
PITPNA	-0.241	2.08	-0.431	-0.444	-0.127
CERS1	0.901	1.58	0.941	0.849	0.711
PDGFRB	-0.0104	2.78	0.0643	0.0749	-0.186
PRMT3	-0.216	1.99	-0.722	-0.227	0.275
CHST1	-0.0784	4.74	-0.0984	-0.145	-0.0509
TTPA	-0.247	1.88	-0.421	-0.228	-0.287
GRWD1	0.876	1.69	0.857	0.885	0.864
IFIT3	-0.513	2.34	-0.442	-0.761	-0.588
MAN2C1	-0.00648	2.58	0.0692	-0.26	-0.177
MAGEC3	-0.644	3.53	-0.736	-0.822	-0.701
ZNF234	-0.296	1.5	-0.358	-0.246	-0.203
WDR83OS	-0.194	2.35	-0.338	-0.239	-0.227
MTCL2	-0.435	3.38	-0.297	-0.479	-0.447
TRPM3	-0.221	2.17	0.0164	-0.202	-0.19
BAG2	0.305	3.69	0.321	0.674	0.0899
DAPK1	0.464	2.66	0.256	0.361	0.493
OXSM	-0.59	1.51	-0.421	-0.554	-0.82
ACE2	0.681	1.91	0.153	0.64	0.934
MIR503HG	0.0947	2.55	0.176	-0.0215	-0.0807
KLHL18	-0.402	1.45	-0.549	-0.354	-0.173
MLC1	0.591	1.53	0.773	0.227	0.556
ZSCAN9	-0.254	2.11	-0.296	-0.222	-0.142
